Consider 1 molecule from paper PMC8005036 (Vaccines, 2021).

The target in this test is E2-SpyTag (Geobacillus stearothermophilus E2 multimeric protein scaffold particle with SpyTag) (Geobacillus stearothermophilus). Nature of the test: negative-stain transmission elect; both purified.

These are yes or no findings as the source states them, for the method shown. Some entries that bind do so weakly or less than the wild type. Where a sequence is shown, tags or fusion partners need not be part of it.

B1: E2-SpyTag (Geobacillus stearothermophilus E2 multimeric protein scaffold particle with SpyTag) (protein)
chain: MAHIVMVDAYKPTKAAAEEKAAPAAAKPATTEGEFPETREKMSGIRRAIAKAMVHSKHTAPHVTLMDEADVTKLVAHRKKFKAIAAEKGIKLTFLPYVVKALVSALREYPVLNTSIDDETEEIIQKHYYNIGIAADTDRGLLVPVIKHADRKPIFALAQEINELAEKARDGKLTPGEMKGASCTITNIGSAGGQWFTPVINHPEVAILGIGRIAEKPIVRDGEIVAAPMLALSLSFDHRMIDGATAQKALNHIKRLLSDPELLLMEA
With B1, the binding entry is “binds”.
